Data taken from PMC11274643, “Design, Synthesis, Characterization, and Cytotoxicity of New Pyrazolylmethylene-2-thioxoimidazolidin-4-one Derivatives towards Androgen-Sensitive LNCaP Prostate Cancer Cells” (Biomolecules, 2024).

Key:
[1] = tested on: AR+LNCaP androgen-sensitive human prostate cancer cell line; test: MTT cytotoxicity assay in presence of 1 nM DHT, 48 h incubation; assay type: cell-based; conditions: IC50 normal cells / IC50 cancer cells
Method: The antitumor properties of pyrazolylmethylene-2-thioxoimidazolidin-4-one derivatives (3a–p) against androgen-sensitive (AR^+LNCaP; ATCC CRL-1740, Accession: CVCL_0395) and androgen-insensitive (AR^-PC-3; ATCC CRL-1435, Accession: CVCL_D5ZS) human prostate cancer cell lines in addition to normal human lung fibroblast cell line (Wi38, Accession: CVCL_2759) were evaluated by MTT assay. AR^+LNCaP, AR^-PC-3, and Wi38 cell lines were purchased frozen in liquid nitrogen from Egyptian Company for Production of Vaccines, Sera and Drugs, Cairo, Egypt (VACSERA). Tumor cell lines were stored as monolayer cultures in DMEM supplemented with 10% FBS and 1% penicillin–streptomycin. MTT assay was carried out as described previously in the literature. In brief, AR^+LNCaP, AR^-PC-3, and Wi38 cells were cultured into 96-well plates containing 100 µL of culture medium per each well. […] A control containing only culture medium was also applied. The assay was performed in triplicate. The cells were incubated overnight to grow at 37 °C in 5% CO2. After removing the growth medium, 100 µL of MTT (0.4 mg/mL of PBS) were added. After 24 h of incubation, the supernatant was removed and 100 µL of DMSO (Sigma Aldrich, Germany) were then added to each sample. Absorbance at 550 nm was measured. The formula (Reading of extract/Reading of negative control) × 100 was applied to calculate the viability percentage. The IC50 value of test compounds (3a–p) was also determined using CPE measurements of normal Wi38 cells (normal human lung fibroblast cells). The MTT assay was repeated with the test compounds (3i, 3k, 3o, 3j, 3p, and 3m) using the three cell types which were stimulated by 1 nM DHT after 48 h of incubation. IC50 values were estimated using Graph Pad Prism computer software (International Scientific Community, San Diego, CA, USA) from linear regression analysis of the concentration–response curves plotted for each tested compound [36].
The assay was performed in the presence of dihydrotestosterone (1 nM DHT) for 48 h of incubation as previously described. DHT is a potent inducer of androgens that enhances prostate cancer disease progression.

AR+LNCaP cells = test: Cell apoptosis assay (Annexin V-FITC, flow cytometry); assay type: cell-based, human; conditions: IC50 concentration, 1 nM DHT
Method: Cell apoptosis assay was performed to ensure the efficacy of compounds 3i and 3k against the progression of AR^+LNCaP tumor cell growth in the presence of 1 nM DHT. Untreated AR^+LNCaP and Enzalutamide-treated AR^+LNCaP were used in this assay as negative and positive controls, respectively. AR^+LNCaP cells were precultured in 25 cm^2 flasks. Briefly, 1 nM DHT was then added to the growing cells. […] AR^+LNCaP cells were harvested and fixed with 70% (v/v) ethanol in FBS (Sigma-Aldrich, Germany), then maintained at 4 °C overnight. The cells were resuspended in FBS containing 0.1% (v/v) Triton X-100, 40 µg/mL […], and 0.1 mg/mL RNase then incubated in a dark chamber at 37 °C for 30 min. A flow-cytometer (Becton Dickinson, San Jose, CA, USA) supplemented with an argon ion laser at a wavelength of 488 nm was used to analyze the AR^+LNCaP cell apoptotic stages. Based on the protocol described by Ozgur et al. (2003), analysis of the data was implemented using Multicycle Software (Phoenix Flow Systems, San Diego, CA, USA; http://www.phoenixflow.com/index.html).
The active compounds 3i and 3k were further analyzed to evaluate their antitumor properties against the growth of the AR^+LNCaP prostate cancer cell line. […] Untreated AR^+LNCaP cells and Enzalutamide reference drug were also used as negative and positive controls in this assay, respectively.

O=C1NC(=S)NC1=Cc1cn(-c2ccc(F)cc2)nc1-c1ccc(Cl)cc1 [Compound 3i, 5-((3-(4-Chlorophenyl)-1-(4-fluorophenyl)-1H-pyrazol-4-yl)methylene)-2-thioxoimidazolidin-4-one]
Safety Index Wi38/LNCaP [1]: 3.6

O=C1NC(=S)NC1=Cc1cn(-c2ccc(F)cc2)nc1-c1ccc(Br)cc1 [Compound 3j, 5-((3-(4-Bromophenyl)-1-(4-fluorophenyl)-1H-pyrazol-4-yl)methylene)-2-thioxoimidazolidin-4-one]
Safety Index Wi38/LNCaP [1]: 2.7

O=C1NC(=S)NC1=Cc1cn(-c2ccc(F)cc2)nc1-c1ccc(C(F)(F)F)cc1 [Compound 3k, 5-((1-(4-Fluorophenyl)-3-(4-(trifluoromethyl)phenyl)-1H-pyrazol-4-yl)methylene)-2-thioxoimidazolidin-4-one]
Safety Index Wi38/LNCaP [1]: 3.8 | fold increase in the percentage of early apoptotic cells compared to Enzalutamide (AR+LNCaP cells): 1.3 fold | fold increase in the percentage of necrotic cells compared to Enzalutamide (AR+LNCaP cells): 1.9 fold

Cc1ccc(-c2nn(-c3ccc(F)cc3)cc2C=C2NC(=S)NC2=O)cc1 [Compound 3m, 5-((1-(4-Fluorophenyl)-3-(p-tolyl)-1H-pyrazol-4-yl)methylene)-2-thioxoimidazolidin-4-one]
Safety Index Wi38/LNCaP [1]: 2.2

O=C1NC(=S)NC1=Cc1cn(-c2ccc(C(F)(F)F)cc2)nc1-c1ccc(F)cc1 [Compound 3o, 5-((3-(4-Fluorophenyl)-1-(4-(trifluoromethyl)phenyl)-1H-pyrazol-4-yl)methylene)-2-thioxoimidazolidin-4-one]
Safety Index Wi38/LNCaP [1]: 1.9

O=C1NC(=S)NC1=Cc1cn(-c2ccc(C(F)(F)F)cc2)nc1-c1ccc(C(F)(F)F)cc1 [Compound 3p, 5-((1,3-Bis(4-(trifluoromethyl)phenyl)-1H-pyrazol-4-yl)methylene)-2-thioxoimidazolidin-4-one]
Safety Index Wi38/LNCaP [1]: 3.4
